Measurements taken from patent publication US20180119166A1.
Results are given in words; binding and its absence hold for the method and conditions named. In cells and extracts the contact can be indirect. Some results given as binding are weak or reduced against the parent protein; the word gives no strength. Tags and fused reporters may be left off the sequences shown.

T1: 6x-histidine-fused LOS4 (LOS4-His) (Arabidopsis) (UniProt Q93ZG7)
T1 sequence: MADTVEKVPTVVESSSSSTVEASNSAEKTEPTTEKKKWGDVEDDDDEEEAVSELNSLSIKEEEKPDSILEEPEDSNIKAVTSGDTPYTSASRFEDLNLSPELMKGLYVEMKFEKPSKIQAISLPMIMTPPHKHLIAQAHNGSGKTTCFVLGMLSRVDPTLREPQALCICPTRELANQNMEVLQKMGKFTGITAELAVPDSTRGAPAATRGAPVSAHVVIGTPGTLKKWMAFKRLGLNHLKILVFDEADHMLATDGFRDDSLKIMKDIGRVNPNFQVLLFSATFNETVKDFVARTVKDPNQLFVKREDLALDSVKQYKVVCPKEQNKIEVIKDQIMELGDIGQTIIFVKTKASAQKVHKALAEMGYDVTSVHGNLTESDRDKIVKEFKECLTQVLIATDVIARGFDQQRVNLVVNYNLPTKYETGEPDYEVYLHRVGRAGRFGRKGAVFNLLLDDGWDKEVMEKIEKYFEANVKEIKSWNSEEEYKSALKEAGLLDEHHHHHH

T2: Myc-fused LOS4 (LOS4-Myc) (Arabidopsis) (UniProt Q93ZG7)
T2 sequence (looked up): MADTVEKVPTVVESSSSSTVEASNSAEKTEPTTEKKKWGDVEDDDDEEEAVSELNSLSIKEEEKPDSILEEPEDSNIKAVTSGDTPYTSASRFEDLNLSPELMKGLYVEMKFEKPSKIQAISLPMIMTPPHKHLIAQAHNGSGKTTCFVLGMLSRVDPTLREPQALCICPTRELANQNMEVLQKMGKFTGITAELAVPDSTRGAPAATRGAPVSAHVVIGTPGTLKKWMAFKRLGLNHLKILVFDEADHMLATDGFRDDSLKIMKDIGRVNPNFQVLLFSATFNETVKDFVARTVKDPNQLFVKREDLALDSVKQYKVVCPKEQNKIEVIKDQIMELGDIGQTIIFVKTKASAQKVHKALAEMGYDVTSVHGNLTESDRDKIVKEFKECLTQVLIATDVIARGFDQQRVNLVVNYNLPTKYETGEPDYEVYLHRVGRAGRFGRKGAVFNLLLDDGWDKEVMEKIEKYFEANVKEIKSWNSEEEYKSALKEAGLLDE


Columns and labels:
[1] = molecular target: T1, 6x-histidine-fused LOS4 (LOS4-His) (Arabidopsis); assay: in vitro pull-down (FIG. 3E), told again in the discussion
[2] = molecular target: T1, 6x-histidine-fused LOS4 (LOS4-His) (Arabidopsis); assay: in vitro pull-down on amylose resin, Coomassie blue staining
[3] = molecular target: T1, 6x-histidine-fused LOS4 (LOS4-His) (Arabidopsis); assay: in vitro pull-down on nickel resin or amylose resin, Coomassie blue staining
[4] = molecular target: T2, Myc-fused LOS4 (LOS4-Myc) (Arabidopsis); assay: co-immunoprecipitation, anti-Flag IP, anti-Myc detection
[5] = molecular target: T2, Myc-fused LOS4 (LOS4-Myc) (Arabidopsis); assay: co-immunoprecipitation from N. benthamiana leaf extracts, anti-Flag IP, anti-Myc western blot

Binder | binding [1] | binding [2] | binding [3] | binding [4] | binding [5]
maltose-binding protein (MBP)-fused Gle1 (MBP-Gle1) (protein, not shown: large carriers) MGIVLEPPCPKSVDGISIDPEPNWNFESLVAEIASVEKKLNGFSMYPQPITNTTLRMGRRGGGFVMHVSEDEMESDEGEESDDEEEEEDHSQICTAGKRFACDELYLSDESDEEFDHEPEYMMNKLGLAESALYEVINDHQTEIKDDIRNQVSVVETEIMNEIETSLSAIARVEKYSETRKEVERKLDLQYQRKVAEALDTHLTAVQREHKIKSQIEERKIRSEEAQEEARRKERAHQEEKIRQEKARAEAQMLAKIRAEEEKKEVERKAAREVAEKEVADRKAAEQKLAEQKAVIESVTGSSATSNAQAGGNSIRAAESALILENHRLKKLEELETTNQSLKSRSNENFSSFEKHIGRVIRQISGTKDSVSGKINDIVKIFKDPRCPVSISIAAFAKKMVTTKEKPNPFACSYVIVYINSQFPQVMDILLAEFHKACIYTVPKHIVNSQSAWDSDAYERLDSIMRLYGALVQTDIRVGNATNVHGIEHGWAWLARFLNKIPANRATATALNSFLQTAGFGLHQRYKSQFLKVVNVVREHFLQKLRAKKDTSDLLVIIAEITAYLDDRMYLKEPEGRAMKTTSTLSSELTAELNQPNYNQNYQRNDYRNYY | binds | binds | binds | – | –
Flag-fused Gle1 (Flag-Gle1) (protein, not shown: small tags and cut ends) MGIVLEPPCPKSVDGISIDPEPNWNFESLVAEIASVEKKLNGFSMYPQPITNTTLRMGRRGGGFVMHVSEDEMESDEGEESDDEEEEEDHSQICTAGKRFACDELYLSDESDEEFDHEPEYMMNKLGLAESALYEVINDHQTEIKDDIRNQVSVVETEIMNEIETSLSAIARVEKYSETRKEVERKLDLQYQRKVAEALDTHLTAVQREHKIKSQIEERKIRSEEAQEEARRKERAHQEEKIRQEKARAEAQMLAKIRAEEEKKEVERKAAREVAEKEVADRKAAEQKLAEQKAVIESVTGSSATSNAQAGGNSIRAAESALILENHRLKKLEELETTNQSLKSRSNENFSSFEKHIGRVIRQISGTKDSVSGKINDIVKIFKDPRCPVSISIAAFAKKMVTTKEKPNPFACSYVIVYINSQFPQVMDILLAEFHKACIYTVPKHIVNSQSAWDSDAYERLDSIMRLYGALVQTDIRVGNATNVHGIEHGWAWLARFLNKIPANRATATALNSFLQTAGFGLHQRYKSQFLKVVNVVREHFLQKLRAKKDTSDLLVIIAEITAYLDDRMYLKEPEGRAMKTTSTLSSELTAELNQPNYNQNYQRNDYRNYY | – | – | – | binds | binds
